Data published in patent US20130210836A1, “MICROBICIDES” (SYNGENTA CROP PROTECTION LLC, priority 2010, published 2013).
Some results were stated once for a whole list of compounds, not compound by compound.

Columns and labels:
[1] = tested on: Botrytis cinerea; assay: Botrytis cinerea (gray mould) growth inhibition in nutrient broth, microtiter plate; assay type: cell-based; conditions: 200 ppm; PDB broth, 24° C., inhibition of growth determined photometrically after 72 hrs
[2] = tested on: Septoria tritici; assay: Septoria tritici (leaf blotch) growth inhibition in nutrient broth, microtiter plate; assay type: cell-based; conditions: 200 ppm; PDB broth, 24 C, inhibition of growth determined photometrically after 72 hrs

Compound | control of Botrytis cinerea [1] | control of Septoria tritici [2]
Fc1ccc(-c2onc(-c3ccc(Cl)cc3F)c2C2(c3cccnc3)CO2)c(F)c1 (stereo not shown) [Compound T1.3, 3-{2-[3-(4-Chloro-2-fluoro-phenyl)-5-(2,4-difluoro-phenyl)-isoxazol-4-yl]-oxiranyl}-pyridine] | at least 80% | at least 80%
Clc1ccc(-c2nsc(-c3ccc(Cl)cc3)c2C2(c3cccnc3)CO2)cc1 (stereo not shown) [Compound T2.1, 3-{2-[3,5-bis-(4-chloro-phenyl)-isothiazol-4-yl]-oxiranyl}-pyridine] | – | at least 80%
Clc1ccc(-c2csc(C3CCCCC3)c2C2(c3cccnc3)CO2)c(Cl)c1 (stereo not shown) [Compound T3.1, 3-{2-[2-cyclohexyl-4-(2,4-dichloro-phenyl)-thiophen-3-yl]-oxiranyl}-pyridine] | – | at least 80%
